Among the data in paper PMC9334269 are binding values, retold here.

The assay deals with T1, endogenous STING (RAW264.7 cells) (mouse (endogenous in RAW264.7)) (UniProt Q3TBT3).
T1 sequence: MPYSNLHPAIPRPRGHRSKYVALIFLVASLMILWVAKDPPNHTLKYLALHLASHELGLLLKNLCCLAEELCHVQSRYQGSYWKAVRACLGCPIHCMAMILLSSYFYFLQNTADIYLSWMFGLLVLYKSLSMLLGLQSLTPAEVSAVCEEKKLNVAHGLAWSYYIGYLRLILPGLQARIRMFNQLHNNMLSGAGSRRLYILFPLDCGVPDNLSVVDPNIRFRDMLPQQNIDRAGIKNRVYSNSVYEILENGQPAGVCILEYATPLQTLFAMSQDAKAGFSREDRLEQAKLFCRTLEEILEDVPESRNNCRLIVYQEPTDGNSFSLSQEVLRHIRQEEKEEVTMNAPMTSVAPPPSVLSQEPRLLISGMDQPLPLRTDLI
Put plainly: co-IP; IP of endogenous STING from RAW264.7 cells stimulated with CDA; immunoblot for NCOA4. A general note: In western blotting, separated proteins are transferred to a membrane and probed.

Results are given in words; binding and its absence hold for the method and conditions named. In cells and extracts the contact can be indirect. Some binding calls cover weakened binding; strength is not graded here.

B1: endogenous NCOA4 (RAW264.7 cells) (protein, UniProt Q5U4H9 1-625)
chain: MNTSLEQSGCYSNRETLLRCSDARRELELAIGGVLRAEQQIKDNLREVKAQIHSCISRHLECLRSREVWLNEQVDLIYQLKEETLQQQAQQLYWLMGQFNCLIHQLEYTQNKDLANQVSVCLERLGSLALKPEDSTVLLFEADTSALRQTITTFGSLKTIQIPEHLMAHASSSSIGPFLEKRGYIQVPEQKSASSGTAVSLSEWLLVSKPAIGLQAPYVPSTNPQDWLIPKQTSENSQTSARACSFFSDAWGNLKGLENWLLNSHQQEIAGKPSSSKCNSHCSTSSFSPEAEKAEDVELLDQDELDLSDWLVTPQEPCELEKPVDGSWETSEKFKLLFQVFREPYNVSDWLVKPDSCTNCQGNQPRGVEIENLGNLKCLNDHLEAKKSVSVPGATISDGWLAQNHQDTWKVEEVCKANEPCTSFAECVCDDNCEKEAMYKWLLKKGGKDKNGMPMEPKSEPEKHRESLTLWLCPSRNELTEQAKAPKAMAPARIADSFHVIKNSSLSEWLMGPTCKGGPKDVPNTEERAGKEMLQSSMATSWCPFNTADWVLPGKKVGSLSQFPSGEDKWLLRKKAQEAFLNSPLQEERNFRPDCYGLPAVCDLFACMQLKVDKEKWLYRTPLQM
In the case of B1, the binding entry is recorded as “binds”.
